Tested on: 3E7 antibody
Assay: Gold sorting of AF12861 beads stained with 3E7 preincubated with YGGFL
Assay type: binding
Settings: 12.5 nM 3E7

For `CC(C)C[C@H](NC(=O)[C@H](Cc1ccccc1)NC(=O)CNC(=O)CNC(=O)[C@@H](N)Cc1ccc(O)cc1)C(=O)O` [YGGFL], the “Sucrose concentration at which 3E7 stained beads precipitate” value (from here on “Sucrose concentration”) (1 μM YGGFL competition) was 44 % sucrose, the “Sucrose concentration” value (10 μM YGGFL competition) was 44 % sucrose and the “Sucrose concentration” value (100 μM YGGFL competition) was 38.2 % sucrose. The “Sucrose concentration” value (1 mM YGGFL competition) was 36.1 % sucrose.

— patent US6309842A, “Use of modified tethers in screening compound libraries” (Glaxo Wellcome Inc., priority 1997, dated 2001)
